{"source": "the supplement of paper PMC5949888", "note": "Most values lie at the floor of the assay. Slopes are relative: functional sequences can read slightly below zero."}
{"tested_on": "Saccharomyces cerevisiae PS128 hsf1 delta, HSF1(1-493) fusion", "test": "growth estimate (transactivation domain function in HSF1 fusion, heat-shock survival) (a.u. (slope of normalised read count over time)); higher = stronger growth at 37°C, i.e. more transactivation activity", "details": "library: random library", "procedure": "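Random 60-nt DNA library encoding peptides of up to 20 aa, fused to the C-terminus of yeast HSF1 residues 1-493 (C-terminal TAD deleted) and expressed from the native HSF1 promoter on a CEN plasmid in hsf1-deleted S. cerevisiae PS128. Cells were selected at 37°C on -trp 5-FOA plates for 0, 2, 4, 6 and 8 days and amplicons were sequenced. Growth estimate is the slope of a robust linear fit of total-sum-normalised read counts (normalised to the first time point) over time, using at least 2 replicates. Sequences are classed functional (TAD activity) above a threshold of -0.13, set from stop-codon control sequences.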"}
{"substance": "CQRLKYLPRIEHGESLGDPT", "growth estimate": "< -0.25"}
{"substance": "TWGGSEPPASPPMSTFKPWR", "growth estimate": "< -0.25"}
{"substance": "HRSREGPH", "growth estimate": "< -0.25"}
{"substance": "IRGQVGAST", "growth estimate": "< -0.25"}
{"substance": "SGGVRLTPLVRRWHSGTSSA", "growth estimate": "< -0.25"}
{"substance": "GVARTISLICPVRCSRRGRI", "growth estimate": "< -0.25"}
{"substance": "PQVLHGYFVVCRCALRSMFR", "growth estimate": "< -0.25"}
{"substance": "YKCSG", "growth estimate": "< -0.25"}
{"substance": "SVKGY", "growth estimate": "< -0.25"}
{"substance": "GLTCIYVASIVN", "growth estimate": "< -0.25"}
{"substance": "AQVTC", "growth estimate": "< -0.25"}
{"substance": "AWDYRGCMGWACPV", "growth estimate": "< -0.25"}
{"substance": "VSC", "growth estimate": "< -0.25"}
{"substance": "RMTRSIFVQVDGEF", "growth estimate": "< -0.25"}
{"substance": "ADVPSGLREKVGVAGLTSSW", "growth estimate": "< -0.25"}
{"substance": "TLSP", "growth estimate": "< -0.253"}
{"substance": "LLLITSGPHPSICACTMRLL", "growth estimate": "< -0.25"}
{"substance": "DPFLVNAE", "growth estimate": "< -0.25"}
{"substance": "SKRDFTRSASRVSRLLK", "growth estimate": "< -0.25"}
{"substance": "ATLQRWTHQGHVWI", "growth estimate": "< -0.25"}
{"substance": "THLGSSHGGSRNRSSKLSSV", "growth estimate": "< -0.25"}
{"substance": "VLPTTRSHFSCSTHLN", "growth estimate": "< -0.25"}
{"substance": "FVPTGGGLRRKDTHICHVAG", "growth estimate": "< -0.25"}
{"substance": "HGYGYGPFLKP", "growth estimate": "< -0.25"}
{"substance": "VEWPCMCLGNCASVDCS", "growth estimate": "< -0.25"}
{"substance": "CGPLSKFVDADLTHLVRSSE", "growth estimate": "< -0.25"}
{"substance": "GGICISFMCITSVLVY", "growth estimate": "< -0.25"}
{"substance": "LDPLNRGPGE", "growth estimate": "< -0.25"}
{"substance": "RTGRGIILDCGSQMGSYHIC", "growth estimate": "< -0.25"}
{"substance": "YATVGKMLYDAGVINV", "growth estimate": "< -0.25"}
{"substance": "RSIPVRIAGERSQMFRSLH", "growth estimate": "< -0.25"}
{"substance": "ITLTTRRRRRRWRVSQ", "growth estimate": "< -0.25"}
{"substance": "VDGWMFGDPTLDRRTGRNGA", "growth estimate": -0.248}
{"substance": "SMKK", "growth estimate": "< -0.25"}
{"substance": "CFLPLMTGRFELSLLLDALE", "growth estimate": "< -0.25"}
{"substance": "CCPAPMEGDFWFR", "growth estimate": -0.229}
{"substance": "RSINTTKPLVRSNIENSRDW", "growth estimate": "< -0.25"}
{"substance": "CLRSRPIAFASRLVLKFRLR", "growth estimate": "< -0.25"}
{"substance": "AFGITFNRPHIPKTSSHLIV", "growth estimate": "< -0.25"}
{"substance": "CRLTSPQRGWYKATRTHP", "growth estimate": "< -0.25"}
{"substance": "AVNE", "growth estimate": "< -0.25"}
{"substance": "RRRLRRMQLIYGPWSPRC", "growth estimate": "< -0.25"}
{"substance": "AIAPEGPADQRARI", "growth estimate": "< -0.25"}
{"substance": "GNIASVLVLYPPSTIG", "growth estimate": "< -0.25"}
{"substance": "VDGQTVCHGQASREVARDRL", "growth estimate": "< -0.25"}
{"substance": "LSGTYPSGVEEMGTTWRKLD", "growth estimate": "< -0.25"}
{"substance": "PSELEGLTDTSTHNTLEITS", "growth estimate": "< -0.25"}
{"substance": "AEV", "growth estimate": "< -0.25"}
{"substance": "TRKLI", "growth estimate": -0.246}
{"substance": "SPKRGSR", "growth estimate": "< -0.25"}
{"substance": "AICP", "growth estimate": "< -0.25"}
{"substance": "EMRFSCVPNKRACITGN", "growth estimate": "< -0.25"}
{"substance": "SHICLTCRGPIQLL", "growth estimate": -0.246}
{"substance": "LDDIKGENIRHRARRRASAG", "growth estimate": "< -0.25"}
{"substance": "CES", "growth estimate": "< -0.25"}
{"substance": "SSRKYTLAIRRGSDFAIPGP", "growth estimate": "< -0.25"}
{"substance": "CERYVRRHSSIGPLTRLGGP", "growth estimate": "< -0.25"}
{"substance": "LTCITPGWHRGCNR", "growth estimate": "< -0.25"}
{"substance": "GRAAFQGIEHGPAGPASNVR", "growth estimate": "< -0.25"}
{"substance": "SMMTAAMGGTLARNTKAVIL", "growth estimate": "< -0.25"}
{"substance": "CGFTQP", "growth estimate": "< -0.25"}
{"substance": "WTSFAKAILITKSQKYGRTP", "growth estimate": "< -0.25"}
{"substance": "GESGGGCQGGIYVNI", "growth estimate": "< -0.25"}
{"substance": "AVRSFLLHTDYS", "growth estimate": "< -0.25"}
{"substance": "CQNHYHSSGCLSINYLQLRA", "growth estimate": "< -0.25"}
{"substance": "TSPKVNHQHGGYSQDTGD", "growth estimate": "< -0.25"}
{"substance": "IDIGRCEGRPARFQSPQCSG", "growth estimate": "< -0.25"}
{"substance": "VRVSADTTKGRVRWPRSSS", "growth estimate": "< -0.25"}
{"substance": "RVRYPLLSLLPGTQ", "growth estimate": "< -0.25"}
{"substance": "LGAGQSEEVLGRERTEIGRC", "growth estimate": "< -0.25"}
{"substance": "TSCVAVESRGPPVNIWGVLT", "growth estimate": -0.243}
{"substance": "GMGLDHGLERPPTLPTVRCA", "growth estimate": "< -0.25"}
{"substance": "LERVVVLRLSTREGPGPGGN", "growth estimate": "< -0.25"}
{"substance": "LWAEVREIIPADCSGRAPGL", "growth estimate": "< -0.25"}
{"substance": "LGVLRRDVIGNLRSPNKHYY", "growth estimate": "< -0.25"}
{"substance": "LETCARCSGDVFGLDRDRYH", "growth estimate": "< -0.25"}
{"substance": "CPLRAVKSSGVS", "growth estimate": "< -0.25"}
{"substance": "STLKRS", "growth estimate": "< -0.25"}
{"substance": "VLIEDTTPRPGTDGNDPPPQ", "growth estimate": "< -0.25"}
